Primary screen of a compound library

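Whole-cell assay for inhibitors of Mycobacterium tuberculosis growth, labelled Cornell in the record; the read-out is not stated. The concentration is filed as 10 mM, unlikely as a test dose, so the dose is not known. Higher means stronger inhibition (inferred from two other growth screens of the library). About 53,000 compounds were tested under these conditions; 1.7% (about 900) showed 50% or more at least once.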

The filed quantity is “Percent Effect” (%). The record does not define 0% and 100%; most values in the screen are far below 50% and negative numbers occur (in some assays of this library far below -100). The compounds are a random part of those screened.

For CN1C(=O)CO[C@H](c2ccc(NC(=O)Cc3cccs3)cc2)[C@H]1CO the result was -16.24%. Result for Cc1ccc(-c2nnc(CN3CCN(c4ccccn4)CC3)o2)cc1 was -16.82%. Result for CS(=O)(=O)N1CCc2ccc(C(=O)N3CCn4ncnc4C3)cc21 was 23.71%. With O=C(O)C(F)(F)F.[H][C@@]12COC[C@]1(COc1cccnc1)CN(C(=O)COc1ccccc1)C2 the screen gave 14.77%. For CS(=O)(=O)c1ccc(CNC(=O)NCC2CCOC2)cc1 (stereo not given) the result was -55.93%.

For O=C(Cc1ccsc1)N1CCOC(c2nc(-c3ncccn3)no2)C1 (stereo not given) the result was -5.03%. Result for Cc1cc(C(=O)N2CCC3(C2)CN(c2ccsc2)C(=O)CN3C)[nH]n1.O=C(O)C(F)(F)F (stereo not given) was 8.909%. Result for CNc1cc(C)nc(C2COCCN2CCOc2ccc(F)cc2)n1 (stereo not given) was 16.03%. For CN(C)CCCN(Cc1ccco1)Cc1ccnn1C1CCCCO1.O=C(O)CC(O)(CC(=O)O)C(=O)O (stereo not given) the result was 1.254%. Result for O=C(O)C(F)(F)F.O=C(c1cnoc1)N1CCC[C@]2(C[C@@H](Oc3ccccn3)CO2)C1 was -10.91%.

Result for Cc1nn(C)cc1CN(C)Cc1cc2c(cc1OC(F)F)OCO2 was 5.169%. Result for Cc1nc(C)c(CN(C)C2CCN(C(=O)OC(C)(C)C)CC2)s1 was 27.49%. For CN1CC(c2ccccc2)CC12CCN(C(=O)c1c(Cl)cnn1C)CC2 (stereo not given) the result was 24.16%. For [H][C@@]12CN(C(=O)c3ccc(C)nc3)C[C@]1([H])OCCN2CC1CCCC1 the result was 5.723%. For O=C(C1COc2ccccc2C1)N(CCO)Cc1ccccc1 (stereo not given) the result was 0.4961%.

COc1cc2nc(C)n(CC(=O)NCC(C)C)c(=O)c2cc1OC gave 3.368%. O=c1[nH]c(CCN2CCN(CC(F)(F)F)CC2)nc2ccccc12 read 106.7%. For O=C(Nc1cccnc1)C1=Cc2ccccc2OC1 the result was 3.117%. Result for CC(=O)N1CCN(Cc2ccc(OCc3nccn3C)cc2)CC1 was -16.77%. Result for Cc1cccc(NC(=O)c2nn(C3CCS(=O)(=O)C3)c3c2CCCC3)n1 (stereo not given) was 21.36%.

Result for Cn1cnc(S(=O)(=O)N2CCCn3cnc(CN4CCCC4)c3C2)c1 was -10.44%. O=S(=O)(c1c(Cl)nc2sccn12)N1CCC2(CCNCC2)C1 gave 3.647%. CCOCC1CN(Cc2ccoc2)Cc2nn(CC3CC3)cc21.O=C(O)C(F)(F)F (stereo not given) read 22.09%. With COc1ccc(-c2nc(CN3CC(n4cccn4)C3)no2)cc1 the screen gave 15.06%. O=S(=O)(Nc1ccccn1)c1cc(Cl)cc2c1OCC2 gave 22.51%.

CC(c1ccc(-c2cnc(N)nc2)cc1)N1CCOCC1 (stereo not given) gave 6.854%. For CN(CC1CCCN(S(C)(=O)=O)C1)c1cnn(C)c1 (stereo not given) the result was -21.49%. Result for Cn1cc(CN2CCc3ncnc(C4CCOC4)c3CC2)cn1 (stereo not given) was 19.79%. O=C(CN1CCC(c2cc(=O)n3c(n2)CCCCC3)CC1)N1CCCC1 read -6.141%. For CC(=O)N1CC=C(n2c(=O)[nH]c3ccccc32)CC1 the result was -21.73%.

[H][C@@]12CCCN1CCCN(c1nc(-c3ccco3)nc3c1CCNCC3)C2 gave 39.68%. COc1ccc(C(=O)NCCCNc2ncccn2)cc1F read 5.261%. Cc1c(C2=NS(=O)(=O)N(C)C(C(=O)Nc3ccc(Br)cc3)=C2)cnn1C gave -21.28%. CCSc1cc(C(=O)NC2CCN(C(=O)c3ccncc3)CC2)ccn1 read 5.077%. With CCOc1cccc(C(=O)N2CCN(c3nccc(OC)n3)CC2)c1 the screen gave 17.51%.

For CS(=O)(=O)NCc1cncc2c1CCN(C(=O)c1ccccn1)C2 the result was 1.646%. Result for CC1CCC(O)(CN2CCN(CCNC(=O)C3CCC3)CC2)CC1 (stereo not given) was 5.302%. CC[C@H]1COCCN1C(=O)CCCn1nnc(-c2ccc(F)cc2)n1 gave 0.6302%. N#CC(NC(=O)CCC1CCC1)c1cnn(-c2ccccc2)c1 (stereo not given) gave -11.44%. Result for CC(C)c1cc(C2CCN(C(=O)Cn3cnnn3)CC2)[nH]n1 was -9.367%.

With CC(O)(CNc1ccccn1)c1ccccc1 (stereo not given) the screen gave 9.257%. With COc1cccc(CN2CCCC2c2c(C)nn(C)c2C)c1 (stereo not given) the screen gave 15.02%. For O=c1[nH]nc2c(S(=O)(=O)N3CCCCC3)cccn12 the result was -45.28%. O=C(NCc1ccc(CN2CCCCC2)cc1)Nc1cccnc1 gave 13.25%. COCCN(C)C[C@@H]1CN(Cc2ccnc3ccccc23)C[C@@H]1CO gave 4.704%.

Result for COc1cc(NC2CCS(=O)(=O)CC2)ncn1 was 7.551%. For Cc1nccn1CCCC(=O)N1CCC2(CCC(=O)N(C(C)C)C2)CC1 the result was 5.883%. For CC(C)c1nsc(NC2CCOC3(CCCC3)C2)n1 (stereo not given) the result was 26.16%. O=C(CSCC1CC1)N1CCCC(c2nccn2Cc2ccncc2)C1 (stereo not given) gave 9.946%. For [H][C@@]12CS(=O)(=O)C[C@]1([H])N(C(=O)c1[nH]c3ccccc3c1Cl)CCN2CC the result was 27.57%.

O=C(O)C(F)(F)F.O=C(O)C(F)(F)F.O=C(O)C(F)(F)F.[H][C@@]12CN(Cc3ccncc3)C[C@]1([H])[C@H](OC)CCN2Cc1cccs1 read -15.45%. With O=C1CC2(CCN(Cc3ccc(-c4ccn[nH]4)s3)CC2)CN1 the screen gave 6.809%. With CCC(=O)c1ccc(OCC(=O)NC(C)c2ncnn2CC)cc1 (stereo not given) the screen gave -2.641%. With Cc1ccc(CC(=O)N2CCOC(c3nc(C)n[nH]3)C2)cn1 (stereo not given) the screen gave 8.473%.

For reference, 3 entries once more:

| Compound | effect |
|---|---|
| `Cc1ccc(CC(=O)N2CCOC(c3nc(C)n[nH]3)C2)cn1` (stereo not given) | 8.473 |
| `CC1CCC(O)(CN2CCN(CCNC(=O)C3CCC3)CC2)CC1` (stereo not given) | 5.302 |
| `COCCN(C)C[C@@H]1CN(Cc2ccnc3ccccc23)C[C@@H]1CO` | 4.704 |

Measurements from “University of Dundee, Small-Polar-MMV Screening Library” (2021), ChEMBL document CHEMBL3988442.